Results deposited as PubChem BioAssay AID504793 (Drosophila RNAi Screening Center, 2011)

Aim: 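Knock-downs allowing continued mitosis even though DNA is damaged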 (primary screen)
Cell system: Drosophila S2R+ cells
Knock-down reagent: long dsRNA against Drosophila genes, about 0.25 µg dsRNA per well
Duration: 4 days of dsRNA, then 4 hours of drug before read-out
Conditions: doxorubicin 0.5 µM for 4 hours to cause double-strand breaks, in cells also given a low, harmless dose of dsRNA against nbs to sensitise the assay
Detection: 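Per-well count of mitotic cells stained for phospho-histone H3 after doxorubicin exposure, used as mitotic index; counts are raw and not normalised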
Scale: mitotic cells: higher = more cells in mitosis, weaker G2 arrest
Rule for the call: 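Genes are called active only when high mitotic counts were reproduced with independent dsRNAs and mitosis was checked for delay without damage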
Calls: active = confirmed in follow-up tests; inactive = not confirmed
The deposit covers about 23,000 reagents; shown is a random part of those with a known target gene and a result. Of all reagents, 62 (0.27%) are marked active. 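Calls come from follow-up tests whose scores are not deposited, so confirmed genes may have low counts here; counts are not normalised per plate.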 Raw values vary from plate to plate and are shown uncorrected. A plus sign joins genes that one reagent is predicted to hit.

| Target gene | amplicon | mitotic cells, replicate 1 | mitotic cells, replicate 2 | Outcome |
| --- | --- | --- | --- | --- |
| CG9550 (GeneID 33913) | DRSC03262 | 8 | – | inactive |
| CG9550 (GeneID 33913) | DRSC26557 | 2 | – | inactive |
| CG6678 (GeneID 42581) | DRSC16092 | 1 | – | inactive |
| CG6678 (GeneID 42581) | DRSC27398 | 2 | – | inactive |
| CG8086 (GeneID 34131) | DRSC03078 | 4 | – | inactive |
| CG8086 (GeneID 34131) | DRSC03079 | 5 | – | inactive |
| CG8086 (GeneID 34131) | DRSC27677 | 11 | – | inactive |
| cpx (GeneID 64877) | DRSC11999 | 8 | – | inactive |
| lectin-24Db (GeneID 53550) | DRSC00553 | 5 | – | inactive |
| CG32119 (GeneID 317866) | DRSC09248 | 7 | – | inactive |
| CG32119 (GeneID 317866) | DRSC21462 | 10 | – | inactive |
| CG32119 (GeneID 317866) | DRSC29122 | 3 | – | inactive |
| anchor (GeneID 39965) | DRSC10861 | 9 | – | inactive |
| TwdlP (GeneID 43201) | DRSC14734 | 6 | – | inactive |
| RluA-2 (GeneID 34440) | DRSC02939 | 10 | – | inactive |
| CG32235 (GeneID 251916) | DRSC23257 | 7 | – | inactive |
| CG9184 (GeneID 38152) | DRSC08636 | 16 | – | inactive |
| CG9184 (GeneID 38152) | DRSC22184 | 6 | – | inactive |
| CG9184 (GeneID 38152) | DRSC23765 | 9 | – | inactive |
| mRpS10 (GeneID 41838) | DRSC15557 | 7 | – | inactive |
| CecA1 (GeneID 43596) | DRSC16603 | 13 | – | inactive |
| CG31730 (GeneID 318920) | DRSC01308 | 9 | – | inactive |
| Dref (GeneID 34328) | DRSC03319 | 3 | – | inactive |
| Or67b (GeneID 39120) | DRSC11241 | 4 | – | inactive |
| Cpr67Fb (GeneID 39225) | DRSC10314 | 4 | – | inactive |
| Cpr67Fb (GeneID 39225) | DRSC29696 | 8 | – | inactive |
| PIG-L (GeneID 42388) | DRSC15577 | 12 | – | inactive |
| PIG-L (GeneID 42388) | DRSC24921 | 5 | – | inactive |
| CG9933 (GeneID 34700) | DRSC03276 | 4 | – | inactive |
| CG9933 (GeneID 34700) | DRSC29443 | 9 | – | inactive |
| Kdm4A (GeneID 35744) | DRSC06586 | 7 | – | inactive |
| Kdm4A (GeneID 35744) | DRSC29611 | 7 | – | inactive |
| Ttc1 (GeneID 41993) | DRSC15016 | 10 | – | inactive |
| Ttc1 (GeneID 41993) | DRSC22469 | 9 | – | inactive |
| Ttc1 (GeneID 41993) | DRSC26111 | 2 | – | inactive |
| Cdk8 (GeneID 39157) | DRSC11113 | 38 | – | active |
| Cdk8 (GeneID 39157) | DRSC28684 | 24 | – | active |
| Klf15 (GeneID 31410) | DRSC17742 | 10 | – | inactive |
| GstZ2 (GeneID 41133) | DRSC16479 | 3 | – | inactive |
| Plc21C (GeneID 33204) | DRSC00773 | 4 | – | inactive |
| sNPF-R (GeneID 40195) | DRSC10836 | 7 | – | inactive |
| CG31267 (GeneID 318651) | DRSC15748 | 9 | – | inactive |
| CG13506 (GeneID 37556) | DRSC04150 | 3 | – | inactive |
| JMJD4 (GeneID 35089) | DRSC03025 | 2 | – | inactive |
| JMJD4 (GeneID 35089) | DRSC25368 | 6 | – | inactive |
| snoRNA:Me28S-C3420b + RpS11 | DRSC07396 | 8 | – | inactive |
| CG14667 (GeneID 40643) | DRSC12253 | 9 | – | inactive |
| CG14667 (GeneID 40643) | DRSC28216 | 3 | – | inactive |
| CG14506 (GeneID 43467) | DRSC14858 | 18 | – | inactive |
| mus302 (GeneID 39874) | DRSC09905 | 2 | – | inactive |
| CG14913 (GeneID 34532) | DRSC02397 | 12 | – | inactive |
| CG14913 (GeneID 34532) | DRSC27967 | 4 | – | inactive |
| CG7840 (GeneID 34136) | DRSC03075 | 5 | – | inactive |
| Tcs4 (GeneID 32982) | DRSC19587 | 5 | – | inactive |
| Tcs4 (GeneID 32982) | DRSC28855 | 7 | – | inactive |
| CG11267 (GeneID 39476) | DRSC09833 | 4 | – | inactive |
| Mef2 (GeneID 36032) | DRSC07468 | 7 | – | inactive |
| Mef2 (GeneID 36032) | DRSC25554 | 6 | – | inactive |
| Surf4 (GeneID 41864) | DRSC16875 | 3 | – | inactive |
| Tbc1d22 (GeneID 42498) | DRSC15867 | 9 | – | inactive |
| CG30177 (GeneID 246500) | DRSC22680 | 4 | – | inactive |
| CG18649 (GeneID 39636) | DRSC10334 | 4 | – | inactive |
| Gnpat (GeneID 53586) | DRSC16960 | 9 | – | inactive |
| Vps33B (GeneID 43077) | DRSC15722 | 8 | – | inactive |
| Act57B (GeneID 37368) | DRSC04042 | 2 | – | inactive |
| CG7202 (GeneID 40376) | DRSC11818 | – | – | inactive |
| CG7202 (GeneID 40376) | DRSC25884 | 6 | – | inactive |
| Nplp2 (GeneID 50286) | DRSC09824 | 2 | – | inactive |
| Cyp6d2 (GeneID 37594) | DRSC04606 | 8 | 9 | inactive |
| Cyp6d2 (GeneID 37594) | DRSC25647 | 9 | – | inactive |
| Cln3 (GeneID 39981) | DRSC10520 | 5 | – | inactive |
| Cln3 (GeneID 39981) | DRSC27270 | 16 | – | inactive |
| CG9568 (GeneID 34227) | DRSC03265 | 1 | 14 | inactive |
| CG18262 (GeneID 31745) | DRSC18149 | 13 | – | inactive |
| CG18262 (GeneID 31745) | DRSC24242 | 5 | – | inactive |
| Drip (GeneID 36236) | DRSC07405 | 4 | – | inactive |
| CG13748 (GeneID 35896) | DRSC06419 | 7 | – | inactive |
| CG13334 (GeneID 36510) | DRSC06369 | 9 | – | inactive |
| CG15468 (GeneID 31426) | DRSC18051 | 17 | – | inactive |
| CG11674 (GeneID 32374) | DRSC19414 | 4 | – | inactive |
| Utx (GeneID 34377) | DRSC02872 | 8 | – | inactive |
| cort (GeneID 33937) | DRSC02148 | 7 | – | inactive |
| cort (GeneID 33937) | DRSC26829 | 5 | – | inactive |
| CG32176 (GeneID 39944) | DRSC10057 | 9 | – | inactive |
| CG32176 (GeneID 39944) | DRSC10058 | 6 | – | inactive |

Continued (18 carried over from the part before).
| Target gene | amplicon | mitotic cells, replicate 1 | mitotic cells, replicate 2 | Outcome |
| --- | --- | --- | --- | --- |
| Nplp2 (GeneID 50286) | DRSC09824 | 2 | – | inactive |
| Cyp6d2 (GeneID 37594) | DRSC04606 | 8 | 9 | inactive |
| Cyp6d2 (GeneID 37594) | DRSC25647 | 9 | – | inactive |
| Cln3 (GeneID 39981) | DRSC10520 | 5 | – | inactive |
| Cln3 (GeneID 39981) | DRSC27270 | 16 | – | inactive |
| CG9568 (GeneID 34227) | DRSC03265 | 1 | 14 | inactive |
| CG18262 (GeneID 31745) | DRSC18149 | 13 | – | inactive |
| CG18262 (GeneID 31745) | DRSC24242 | 5 | – | inactive |
| Drip (GeneID 36236) | DRSC07405 | 4 | – | inactive |
| CG13748 (GeneID 35896) | DRSC06419 | 7 | – | inactive |
| CG13334 (GeneID 36510) | DRSC06369 | 9 | – | inactive |
| CG15468 (GeneID 31426) | DRSC18051 | 17 | – | inactive |
| CG11674 (GeneID 32374) | DRSC19414 | 4 | – | inactive |
| Utx (GeneID 34377) | DRSC02872 | 8 | – | inactive |
| cort (GeneID 33937) | DRSC02148 | 7 | – | inactive |
| cort (GeneID 33937) | DRSC26829 | 5 | – | inactive |
| CG32176 (GeneID 39944) | DRSC10057 | 9 | – | inactive |
| CG32176 (GeneID 39944) | DRSC10058 | 6 | – | inactive |
| Dbp80 (GeneID 3354919) | DRSC22034 | 13 | – | inactive |
| CG9588 (GeneID 41672) | DRSC16504 | 2 | – | inactive |
| ppk18 (GeneID 34295) | DRSC02216 | 4 | – | inactive |
| CG43897 (GeneID 39153) | DRSC10967 | 3 | – | inactive |
| CG43897 (GeneID 39153) | DRSC25785 | 10 | – | inactive |
| LSm7 (GeneID 35003) | DRSC02251 | 4 | – | inactive |
| CG1663 (GeneID 36012) | DRSC06613 | 5 | – | inactive |
| CG1663 (GeneID 36012) | DRSC22488 | 10 | – | inactive |
| CG1663 (GeneID 36012) | DRSC28315 | 4 | – | inactive |
| Cp7Fa (GeneID 3885650) | DRSC18032 | 13 | – | inactive |
| Cp7Fa (GeneID 3885650) | DRSC18033 | 16 | – | inactive |
| Cp7Fa (GeneID 3885650) | DRSC24279 | 8 | – | inactive |
| Nup188 (GeneID 36397) | DRSC21830 | 19 | – | inactive |
| Nup188 (GeneID 36397) | DRSC29937 | 10 | – | inactive |
| Ilp1 (GeneID 39149) | DRSC10174 | 3 | – | inactive |
| otk (GeneID 36283) | DRSC07658 | 3 | – | inactive |
| otk (GeneID 36283) | DRSC29192 | 6 | – | inactive |
| Mtmr6 (GeneID 37707) | DRSC04046 | 3 | – | inactive |
| Mtmr6 (GeneID 37707) | DRSC26569 | 7 | – | inactive |
| CG13151 (GeneID 36374) | DRSC06276 | 8 | – | inactive |
| Fnta (GeneID 33682) | DRSC00557 | 10 | – | inactive |
| Fnta (GeneID 33682) | DRSC28877 | 7 | – | inactive |
| thr (GeneID 37042) | DRSC07706 | 9 | – | inactive |
| Cyp6a23 (GeneID 36661) | DRSC07383 | 5 | – | inactive |
| Cyp6a23 (GeneID 36661) | DRSC29473 | 4 | – | inactive |
| Cpr49Ac (GeneID 36348) | DRSC07199 | 4 | – | inactive |
| RpL8 (GeneID 44251) | DRSC08532 | 6 | – | inactive |
| RpL8 (GeneID 44251) | DRSC08695 | 14 | – | inactive |
| RpL8 (GeneID 44251) | DRSC29905 | 6 | – | inactive |
| CG6966 (GeneID 41816) | DRSC16156 | 5 | – | inactive |
| CG6966 (GeneID 41816) | DRSC24518 | 1 | – | inactive |
| CG12620 (GeneID 35034) | DRSC02177 | 4 | – | inactive |
| CG12620 (GeneID 35034) | DRSC24601 | 2 | – | inactive |
| AIMP2 (GeneID 39690) | DRSC09877 | 9 | – | inactive |
| AIMP2 (GeneID 39690) | DRSC26797 | 6 | – | inactive |
| vlc (GeneID 46078) | DRSC04922 | 5 | – | inactive |
| CG9123 (GeneID 32462) | DRSC20156 | 3 | – | inactive |
| CG17824 (retired record) (GeneID 39361) | DRSC10288 | 4 | – | inactive |
| LIMK1 (GeneID 32207) | DRSC19811 | 3 | – | inactive |
| Apc2 (GeneID 42871) | DRSC14115 | 5 | – | inactive |
| Cpr47Ef (GeneID 36194) | DRSC06336 | 8 | – | inactive |
| Cpr47Ef (GeneID 36194) | DRSC22450 | 36 | – | inactive |
| Cpr47Ef (GeneID 36194) | DRSC25090 | 5 | – | inactive |
| Cpr47Ef (GeneID 36194) | DRSC25665 | 10 | – | inactive |
| Polr2B (GeneID 41721) | DRSC16831 | 11 | – | inactive |
| Or67d (GeneID 39191) | DRSC10158 | 6 | – | inactive |
| Xrp1 (GeneID 42267) | DRSC15283 | 10 | – | inactive |
| Xrp1 (GeneID 42267) | DRSC28718 | 4 | – | inactive |
| MED18 (GeneID 31140) | DRSC18549 | 11 | – | inactive |
| prg (GeneID 34177) | DRSC03324 | 4 | – | inactive |
| Ccn (GeneID 39972) | DRSC09504 | 7 | – | inactive |
| Ccn (GeneID 39972) | DRSC09506 | 12 | – | inactive |
| Ccn (GeneID 39972) | DRSC10062 | 4 | – | inactive |
| Ccn (GeneID 39972) | DRSC10063 | 10 | – | inactive |
| Pgant35A (GeneID 48775) | DRSC03557 | 4 | 5 | inactive |
| Pgant35A (GeneID 48775) | DRSC28249 | 3 | – | inactive |
